{"sequences": {"note": "The chains behind the UniProt entries cited, without tags or fusion partners.", "UniProt Q8NER1, whole entry, looked up": "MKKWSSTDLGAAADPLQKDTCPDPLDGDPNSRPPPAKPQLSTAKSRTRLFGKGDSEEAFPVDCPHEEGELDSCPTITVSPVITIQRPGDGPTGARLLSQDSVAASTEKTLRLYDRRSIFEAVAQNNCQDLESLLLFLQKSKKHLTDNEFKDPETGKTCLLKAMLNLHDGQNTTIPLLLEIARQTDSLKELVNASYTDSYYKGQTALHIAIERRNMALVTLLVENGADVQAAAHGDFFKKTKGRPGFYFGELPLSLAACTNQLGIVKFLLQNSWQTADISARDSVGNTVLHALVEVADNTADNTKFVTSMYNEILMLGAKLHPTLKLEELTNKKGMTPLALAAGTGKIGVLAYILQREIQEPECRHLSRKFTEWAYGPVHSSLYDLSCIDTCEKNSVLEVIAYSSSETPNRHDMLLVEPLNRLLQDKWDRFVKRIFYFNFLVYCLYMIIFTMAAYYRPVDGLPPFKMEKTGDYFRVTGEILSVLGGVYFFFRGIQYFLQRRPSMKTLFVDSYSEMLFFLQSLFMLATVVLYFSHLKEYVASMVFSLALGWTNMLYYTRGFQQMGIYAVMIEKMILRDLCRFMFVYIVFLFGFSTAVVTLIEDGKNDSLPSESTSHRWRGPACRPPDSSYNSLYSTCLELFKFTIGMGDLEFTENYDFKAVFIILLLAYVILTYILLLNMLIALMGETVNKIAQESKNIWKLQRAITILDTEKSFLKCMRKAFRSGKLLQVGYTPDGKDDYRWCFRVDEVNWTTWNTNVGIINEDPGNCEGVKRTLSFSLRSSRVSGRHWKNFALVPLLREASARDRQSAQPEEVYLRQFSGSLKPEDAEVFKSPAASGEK"}, "source": "PubChem BioAssay AID540275", "about": "(National Center for Advancing Translational Sciences (NCATS), 2011)", "note": "Several values for one entry are separate records, joined by “and”; a condition that tells them apart may be missing. Identical values can stand only once. Screen size: about 320,000 compounds; about 620 (0.19%) were called active. Inconclusive means that the source gave no clear call. Such entries were picked first, then a sample of the others. Rule as the data show it: active = activation above about 80%; inconclusive = between about 30% and that limit; inactive = weaker than that.", "data": [{"target": "Transient receptor potential cation channel subfamily V member 1 (Homo sapiens) (UniProt Q8NER1)", "assay": "HTS Assay for Compounds that Act as Agonists of the Vanilloid Receptor 1; also: 0% is about no effect", "conditions": "TRPV1-expressing cells, Fluo-8 calcium influx, agonist mode; at 8.33 µM, hits give high values", "in_short": "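TRPV1-expressing cells were cultured overnight at 35.5C and loaded with Fluo-8 calcium dye for 40 to 90 min at room temperature. After a 10 s baseline, compound was added and calcium influx was read kinetically for 3 min (ex 480/em 520 nm).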", "values": [{"smiles": "Cc1cc(CN2CCC(n3nccc3NC(=O)c3ccccc3Cl)CC2)cc(C)c1O", "activation": "inactive: -4.62%"}, {"smiles": "COc1ccc(S(=O)(=O)N2CCc3ccccc32)cc1C(=O)NCCc1ccccn1", "activation": "inactive: -3.94%"}, {"smiles": "O=C(Nc1ccc(Br)cn1)c1ccc(Br)s1", "activation": "inconclusive: 73.4%"}, {"smiles": "CCC(NC(=O)c1ccccc1NC(=O)c1ccccc1)C(=O)OC", "note": "(stereo unspecified)", "activation": "inconclusive: 37.2%"}, {"smiles": "CCOc1ccc(C(=O)C(CCC(CN(C)C)C(=O)c2ccc(OCC)cc2)CN(C)C)cc1", "note": "(stereo unspecified)", "activation": "inactive: 11.1%"}, {"smiles": "COCc1cc(=O)[nH]c(SCCS(=O)(=O)c2ccc(Cl)cc2Cl)n1", "activation": "inconclusive: 42.9%"}, {"smiles": "Cn1cc(C(=O)Nc2ccc(Cl)cc2)c(C(F)(F)F)n1", "activation": "inconclusive: 65.1%"}, {"smiles": "Cc1c(C(=O)N2CCCCC2)oc2ccc(Br)cc12", "activation": "inconclusive: 34.4%"}, {"smiles": "O=C(Nc1ccc2c(c1)OCCO2)c1coc2ccccc2c1=O", "activation": "inconclusive: 41%"}, {"smiles": "Cc1ccc(OCC(O)CN2CCN(CC(O)COc3ccc(C)cc3)CC2)cc1", "note": "(stereo unspecified)", "activation": "inactive: 6.82%"}, {"smiles": "Cc1cccc(N2CCN(C(=O)c3cn(C)c(=O)c4c3c3ccccc3n4C)CC2)c1C", "activation": "inactive: 8.45%"}, {"smiles": "CC(C)(C)c1ccc(/C=N/OCC(=O)NCc2ccc(F)cc2)cc1", "activation": "active: 91.6%"}, {"smiles": "Nc1ccc(SCC(=O)Nc2cccc([N+](=O)[O-])c2)cc1", "activation": "inactive: 2.49%"}, {"smiles": "O=C(c1[nH]nc2c1CCc1ccccc1-2)N1CCN(Cc2ccc3c(c2)OCO3)CC1", "activation": "inconclusive: 68.5%"}, {"smiles": "COc1cccc(Nc2ncnc3sccc23)c1", "activation": "inconclusive: 46.7%"}, {"smiles": "Cc1ccc(Cn2c(=N)c(C(=O)NCc3ccco3)cc3c(=O)n4ccccc4nc32)cc1", "activation": "inconclusive: 67.6%"}, {"smiles": "COc1ccccc1N1C(=O)C2C(C(=O)c3ccccc3)=NN(c3ccc(Br)cc3)C2C1=O", "note": "(stereo unspecified)", "activation": "inactive: 2.89%"}, {"smiles": "O=C1N=C(N2CCOCC2)S/C1=C\\c1ccc(-c2ccccc2Cl)o1", "activation": "inconclusive: 46.3%"}, {"smiles": "Cc1ccccc1N(C)C(=O)C1CCCN(c2ncnc3c2nc2n3CCCCC2)C1", "note": "(stereo unspecified)", "activation": "inconclusive: 79.6%"}, {"smiles": "CCCCn1cc(S(=O)(=O)c2ccccc2)c(=O)c2cc(C)ccc21", "activation": "inconclusive: 35.1%"}, {"smiles": "Nc1nonc1-n1nnc(C(=O)N/N=C/c2ccc3c(c2)OCO3)c1-c1ccccc1", "activation": "inactive: -1.04%"}, {"smiles": "O=C1C=C(c2cccc(Br)c2)C[C@@H](c2ccc3c(c2)OCO3)C1", "activation": "inconclusive: 55.2%"}, {"smiles": "COc1ccc(CCNC(=S)Nc2ccc(C(C)C)cc2)cc1", "activation": "inconclusive: 34.5%"}, {"smiles": "COc1ccc(NC(=S)N(CCN2CCOCC2)Cc2ccccc2F)cc1", "activation": "inactive: 8.96%"}, {"smiles": "COc1ccc(CC(=O)Nc2cccc3ccccc23)cc1OC", "activation": "active: 89%"}, {"smiles": "O=C(COc1ccc(Cl)cc1)Nc1ccc(Cl)cn1", "activation": "inconclusive: 40.2%"}, {"smiles": "O=C(Nc1cccc(Cl)c1)C1=Cc2cc(Cl)ccc2OC1", "activation": "inconclusive: 74.6%"}, {"smiles": "COC(=O)c1cccc(NC(=O)c2ccc(OC)c(Cl)c2)c1", "activation": "inconclusive: 40.6%"}, {"smiles": "O=C(CNC(=O)c1ccco1)Nc1ccc(OC(F)F)cc1", "activation": "inactive: -1.15%"}, {"smiles": "O=S1(=O)N=C(Nc2ccc(N3CCOCC3)c(Cl)c2)c2ccccc21", "activation": "inconclusive: 32.8%"}, {"smiles": "Cc1ccc2c(c1)N(S(=O)(=O)c1cc(-c3cc(C)no3)ccc1C)CCO2", "activation": "inconclusive: 54.1%"}, {"smiles": "Cc1ccc(-c2ncccc2OC(=O)C23CC4CC(CC(C4)C2)C3)cc1", "activation": "inconclusive: 32.3%"}, {"smiles": "O=C(COC(=O)Cc1ccc(-c2ccccc2)cc1)NCc1ccc(F)cc1", "activation": "inconclusive: 46%"}, {"smiles": "O=C(CNC(=O)c1ccc(Cl)cc1)c1ccc(Cl)cc1", "activation": "inconclusive: 30.5%"}, {"smiles": "CCC1Oc2ccc(C)cc2N(CC(=O)N(Cc2cccnc2)Cc2ccc(C)o2)C1=O", "note": "(stereo unspecified)", "activation": "inconclusive: 37.9%"}, {"smiles": "CC1CC1C(=O)Nc1nc(-c2cccs2)c(-c2cccs2)s1", "note": "(stereo unspecified)", "activation": "inconclusive: 34.2%"}, {"smiles": "CN(C)S(=O)(=O)c1ccc(NC(=O)c2ccccn2)cc1", "activation": "inconclusive: 78.9%"}, {"smiles": "Cc1cccc(C(=O)Nc2cc(S(=O)(=O)N3CCOCC3)ccc2N2CCCCC2)c1", "activation": "inconclusive: 40.2%"}, {"smiles": "Fc1ccc(N2N=C(c3cccs3)CC2c2ccccc2)cc1", "note": "(stereo unspecified)", "activation": "inactive: 9.16%"}, {"smiles": "CC(OC(=O)CCN=C1NS(=O)(=O)c2ccccc21)C(=O)Nc1ccccc1F", "note": "(stereo unspecified)", "activation": "inactive: -4.4%"}, {"smiles": "O=C(COC(=O)c1cnc(Cl)c(Cl)c1)Nc1ccc(S(=O)(=O)N2CCCC2)cc1", "activation": "inactive: 9.44%"}, {"smiles": "CCC(C(=O)OCC(=O)Nc1ccc2[nH]c(=O)[nH]c2c1)c1ccccc1", "note": "(stereo unspecified)", "activation": "inconclusive: 50%"}, {"smiles": "N#Cc1c(N)n(CCc2ccc(F)cc2)c2nc3ccccc3nc12", "activation": "inactive: 3.94%"}, {"smiles": "CC(=O)Oc1ccc(C(=O)NCCc2ccccc2)cc1", "activation": "inconclusive: 38%"}, {"smiles": "Cc1nc2ccc(F)cc2cc1C(=O)Nc1cccc(Cl)c1C", "activation": "inconclusive: 64.3%"}, {"smiles": "O=C(COC(=O)CCC1CCCC1)Nc1ccccc1OC(F)F", "activation": "inconclusive: 41.5%"}, {"smiles": "Clc1ccc(OCCn2c(-c3ccco3)nc3ccccc32)cc1", "activation": "inconclusive: 32.1%"}, {"smiles": "COc1ccc(-n2c(Cc3ccccc3)nnc2SCc2ccc([N+](=O)[O-])cc2)cc1", "activation": "inconclusive: 33.3%"}, {"smiles": "CC(Sc1ccccc1)C(=O)N1CCN(S(=O)(=O)c2ccccc2F)CC1", "note": "(stereo unspecified)", "activation": "inconclusive: 34.2%"}, {"smiles": "Cc1ccccc1-n1nnnc1SCC(=O)c1c(N)n(C2CC2)c(=O)[nH]c1=O", "activation": "inactive: 3.56%"}, {"smiles": "O=C(NCCSCc1ccccc1)c1ccc(F)cc1", "activation": "active: 81.3%"}, {"smiles": "CC[C@H](C)C(=O)O[C@H]1C[C@@H](C)C=C2C=C[C@H](C)[C@H](CC[C@@H]3C[C@@H](O)CC(=O)O3)[C@H]21", "activation": "inconclusive: 46.4% and inconclusive: 34.4%"}, {"smiles": "COc1ccc(C(=O)c2c(C)oc3ccc(O)cc23)cc1", "activation": "inconclusive: 30.3%"}, {"smiles": "CC(NS(=O)(=O)c1ccc(Br)cc1)c1ccccc1", "note": "(stereo unspecified)", "activation": "inactive: 11.2%"}, {"smiles": "C=C1CCN(c2ccc(C(=O)NCc3ccccc3)cc2[N+](=O)[O-])CC1", "activation": "inconclusive: 60%"}, {"smiles": "CCOc1ccc(OCC)c(NC(=O)C2CCCN(c3ncccn3)C2)c1", "note": "(stereo unspecified)", "activation": "inconclusive: 44.4%"}]}]}
